Reference: PMC11279727, “Bioprospecting, Synergistic Antifungal and Toxicological Aspects of the Hydroxychalcones and Their Association with Azole Derivates against Candida spp. for Treating Vulvovaginal Candidiasis” (Pharmaceutics, 2024)

Test system: C33A cell line (uterine cervical carcinoma epithelium)
Experiment: In vitro cytotoxicity (resazurin, 72 h)
Procedure: Cytotoxicity assays were performed on the C33A cell line (uterine cervical carcinoma epithelium) obtained from the ATCC (Manassas, VA, USA). 5 × 10^4 cells/well were added using RPMI medium with 10% fetal bovine serum into 96-well plates. Cells were incubated at 36.5 °C with 5% CO2 for 24 h to form a cell monolayer. 2-HC and 3′-HC were analyzed in range concentrations from 0.1–75 μg/mL. In combinations, 2-HC and 3′-HC were analyzed from 0.48–31.25 mg/L and 0.48–62.5 mg/L. Cells were exposed for 72 h, and after, cytotoxicity was assessed by adding 100 μL of resazurin (50 μM) and measured by a microplate reader at 570 nm–600 nm. A negative control with untreated cells (100% living cells) and a positive control (DMSO 40% to induce cell death) were also used. The results were evaluated in triplicate independent. […] Selective index (SI) was calculated using SI=IC50/MIC50 .

[1] = SI=IC50/MIC50, C33A vs C. albicans ATCC 90028
[2] = SI=IC50/MIC50, C33A vs C. krusei ATCC 6258
[3] = SI=IC50/MIC50, C33A vs C. tropicalis ATCC 750

| SMILES | SI [1] | SI [2] | SI [3] |
| --- | --- | --- | --- |
| O=C(/C=C/c1ccccc1)c1cccc(O)c1 [3′-HC, 3′-hydroxychalcone] | 0.76 | 1.52 | 1.52 |
| O=C(/C=C/c1ccccc1O)c1ccccc1 [2-HC, 2-hydroxychalcone] | 0.83 | 0.83 | 1.66 |
